PubChem BioAssay AID1259308 | NCATS – 2017
In all, the deposit lists about 59,000 reagents; this is an unselected part. About 1,510 of all reagents (2.6%) were called active. 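Calls use total luciferase alone and ignore viability, so some active siRNAs may act by altering cell number.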 Entries without a mark were called inactive. Reagents against one gene are numbered here. Not all columns of the deposit are shown. No sequences are given here.

- Test: 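Knock-downs that increase output of a recombinant reporter protein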 (primary screen)
- Cell system: human HEK293 embryonic kidney cells stably expressing firefly luciferase (HEK-CMV-Luc2-Hygro)
- Knock-down reagent: single siRNA against human genes, 0.8 pmol siRNA per well
- Time to read-out: 72 h
- Measured: 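Luciferase light (ONE-Glo) measured on one replicate plate set and viability (CellTiter-Glo) on the other, scaled to a negative control siRNA, with robust z-scores and luciferase per cell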
- Scale: total luciferase, z-score: higher = more reporter protein produced
- Call rule: 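An siRNA counts as active if its total luciferase robust z-score exceeds 3; genes with two or more such siRNAs out of three were retested with fresh siRNAs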
- Calls: active = raised luciferase; inactive = no rise

After knock-down of UBA2 #1, the screen gave total luciferase, z-score 1.14. UBA2 #2 scored total luciferase, z-score 0.0972. After knock-down of UBA2 #3, the record shows total luciferase, z-score 0.0575. Knock-down of AFG1L #1 resulted in: total luciferase, z-score -0.641. After knock-down of AFG1L #2, the record shows total luciferase, z-score 1.93. Against AFG1L #3, the entry reads total luciferase, z-score 1.84.

For ZBTB7C #1, the entry reads total luciferase, z-score -0.899. With knock-down of ZBTB7C #2, the screen gave total luciferase, z-score 0.478. ZBTB7C #3 gave total luciferase, z-score 2.54. Against GNPTAB #1, the entry reads total luciferase, z-score -0.225. With knock-down of GNPTAB #2 the results were total luciferase, z-score 0.596. GNPTAB #3 showed total luciferase, z-score -0.501.

For CAPN9 #1, the entry reads total luciferase, z-score 0.026. CAPN9 #2 gave total luciferase, z-score 1.62. For CAPN9 #3, the values are total luciferase, z-score 1.46. Against SDHB #1 the deposit lists total luciferase, z-score -1.05. Silencing of SDHB #2 gave: total luciferase, z-score 1.36. With knock-down of SDHB #3, the screen gave total luciferase, z-score 0.65.

After knock-down of EVC #1, the record shows total luciferase, z-score -0.619. For EVC #2, the entry reads total luciferase, z-score -0.575. Depletion of EVC #3 gave: total luciferase, z-score 0.346.

7 entries from above, sorted by “total luciferase, z-score”, low to high:
ZBTB7C #1 → total luciferase, z-score = -0.899
GNPTAB #3 → total luciferase, z-score = -0.501
GNPTAB #1 → total luciferase, z-score = -0.225
ZBTB7C #2 → total luciferase, z-score = 0.478
GNPTAB #2 → total luciferase, z-score = 0.596
AFG1L #3 → total luciferase, z-score = 1.84
ZBTB7C #3 → total luciferase, z-score = 2.54

Further entries:
Depletion of TRPV2 #1 gave: total luciferase, z-score 1.08. Against TRPV2 #2 the deposit lists total luciferase, z-score -0.445. TRPV2 #3 scored total luciferase, z-score 0.184. After knock-down of SERPINB5 #1, the record shows total luciferase, z-score -0.264. With knock-down of SERPINB5 #2 the results were total luciferase, z-score 0.103. For SERPINB5 #3 the deposit lists total luciferase, z-score 0.17.

STK11 #1 showed total luciferase, z-score -0.252. STK11 #2 showed total luciferase, z-score 1.55. STK11 #3 showed total luciferase, z-score 4.28 (active). After knock-down of MAP1LC3B #1, the screen gave total luciferase, z-score -0.575. Knock-down of MAP1LC3B #2 gave: total luciferase, z-score -0.505. Knock-down of MAP1LC3B #3 resulted in: total luciferase, z-score -0.513.

After knock-down of TRIOBP #1, the screen gave total luciferase, z-score 1.09. Depletion of TRIOBP #2 resulted in: total luciferase, z-score 0.0497. TRIOBP #3 showed total luciferase, z-score 0.381. Against NODAL #1, the entry reads total luciferase, z-score -0.04. For NODAL #2 the deposit lists total luciferase, z-score -0.0562. Depletion of NODAL #3 came out at: total luciferase, z-score -1.57.

After knock-down of EPHA10 #1, the record shows total luciferase, z-score -0.266. With knock-down of EPHA10 #2, the record shows total luciferase, z-score -0.992. For EPHA10 #3 the deposit lists total luciferase, z-score -0.0246.
